This note sets out measurements from patent US20160228570A1 (QUEEN MARY AND WESTFIELD COLLEGE, published 2016).

The chains behind the UniProt entries cited, without tags or fusion partners. Residues count along the entry.
UniProt P02459, residues 201-1214: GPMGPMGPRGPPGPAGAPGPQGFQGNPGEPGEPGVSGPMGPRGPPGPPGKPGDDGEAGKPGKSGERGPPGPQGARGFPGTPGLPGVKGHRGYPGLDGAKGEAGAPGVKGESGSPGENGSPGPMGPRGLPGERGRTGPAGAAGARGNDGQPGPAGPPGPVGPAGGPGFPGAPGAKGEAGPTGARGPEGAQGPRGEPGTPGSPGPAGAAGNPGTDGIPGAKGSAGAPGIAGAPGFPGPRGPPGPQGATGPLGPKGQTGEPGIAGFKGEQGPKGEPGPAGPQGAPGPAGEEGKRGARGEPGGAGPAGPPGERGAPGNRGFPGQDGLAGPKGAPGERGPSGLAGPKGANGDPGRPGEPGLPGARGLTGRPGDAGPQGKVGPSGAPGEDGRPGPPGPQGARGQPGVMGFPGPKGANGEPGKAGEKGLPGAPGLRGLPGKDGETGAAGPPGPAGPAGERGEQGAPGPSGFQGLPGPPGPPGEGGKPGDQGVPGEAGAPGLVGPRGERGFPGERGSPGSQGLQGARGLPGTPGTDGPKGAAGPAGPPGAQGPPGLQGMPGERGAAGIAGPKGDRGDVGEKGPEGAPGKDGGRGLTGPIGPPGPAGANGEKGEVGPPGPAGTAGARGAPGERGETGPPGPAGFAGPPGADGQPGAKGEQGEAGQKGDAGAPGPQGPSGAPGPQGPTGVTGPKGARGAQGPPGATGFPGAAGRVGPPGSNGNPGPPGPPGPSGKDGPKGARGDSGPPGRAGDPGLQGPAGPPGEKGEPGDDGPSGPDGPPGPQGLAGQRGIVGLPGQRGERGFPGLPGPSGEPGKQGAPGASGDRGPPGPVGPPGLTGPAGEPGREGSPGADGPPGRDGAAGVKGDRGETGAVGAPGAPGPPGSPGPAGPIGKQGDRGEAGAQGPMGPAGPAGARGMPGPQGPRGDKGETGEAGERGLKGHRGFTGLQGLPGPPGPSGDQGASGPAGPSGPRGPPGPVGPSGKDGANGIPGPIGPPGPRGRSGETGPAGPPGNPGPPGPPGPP

The assay has as its target T1, HOCl modified CII (bovine, UniProt P02459 201-1214, modified with HOCl; residues not stated).
T1 construct: also called HOCl-CII; HOCl-Collagen II
Nature of the assay: phage ELISA screen; Antigen column of Table 3. A general note: ELISA stands for enzyme-linked immunosorbent assay.

Results are given in words; binding and its absence hold for the method and conditions named. Some results given as binding are weak or reduced against the parent protein; the word gives no strength.

B1: scFv 3-7H (scFv)
scFv: EVQLLESGGGLVQPGGSLRLSCAASGFTFSSYAMSWVRQAPGKGLEWVSAINAYGGSTYYADSVKGRFTISRDNSKNTLYLQMNSLRAEDTAVYYCAKNYSYFDYWGQGTLVTVSSGGGGSGGGGSGGGGSTDIQMTQSPSSLSASVGDRVTITCRASQSISSYLNWYQQKPGKAPKLLIYAASSLQSGVPSRFSGSGSGTDFTLTISSLQPEDFATYYCQQGSDYPTTFGQGTKVEIKR
Turning to B1, the binding result was “binds”.

B2: scFv 3-2F (scFv)
scFv: EVQLLESGGGLVQPGGSLRLSCAASGFTFSSYAMSWVRQAPGKGLEWVSAIANTGSATNYADSVKGRFTISRDNSKNTLYLQMNSLRAEDTAVYYCAKNYTAFDYWGQGTLVTVSSGGGGSGGGGSGGGGSTDIQMTQSPSSLSASVGDRVTITCRASQSISSYLNWYQQKPGKAPKLLIYDASTLQSGVPSRFSGSGSGTDFTLTISSLQPEDFATYYCQQRNTSPTTFGQGTKVEIKR
For the molecule B2, the binding result is on record as “binds”.

B3: scFv 6-10H (scFv)
scFv: EVQLLESGGGLVQPGGSLRLSCAASGFTFSSYAMSWVRQAPGKGLEWVSSISYTGDSTYYADSVKGRFTISRDNSKNTLYLQMNSLRAEDTAVYYCAKNYSAFDYWGQGTLVTVSSGGGGSGGGGSGGGGSTDIQMTQSPSSLSASVGDRVTITCRASQSISSYLNWYQQKPGKAPKLLIYYASYLQSGVPSRFSGSGSGTDFTLTISSLQPEDFATYYCQQADSTPTTFGQGTKVEIKR
Regarding B3, the binding entry is recorded as “binds”.

B4: scFv 3-12F (scFv)
scFv: EVQLLESGGGLVQPGGSLRLSCAASGFTFSSYAMSWVRQAPGKGLEWVSSISTNGSSTYYADSVKGRFTISRDNSKNTLYLQMNSLRAEDTAVYYCAKNYSSFDYWGQGTLVTVSSGGGGSGGGGSGGGGSTDIQMTQSPSSLSASVGDRVTITCRASQSISSYLNWYQQKPGKAPKLLIYDASGLQSGVPSRFSGSGSGTDFTLTISSLQPEDFATYYCQQGDTSPTTFGQGTKVEIKR
Regarding B4, the binding result is reported as “binds”.

B5: scFv 6-10D (scFv)
scFv: EVQLLESGGGLVQPGGSLRLSCAASGFTFSSYAMSWVRQAPGKGLEWVSSISNNGSSTYYADSVKGRFTISRDNSKNTLYLQMNSLRAEDTAVYYCAKNYSYFDYWGQGTLVTVSSGGGGSGGGGSGGGGSTDIQMTQSPSSLSASVGDRVTITCRASQSISSYLNWYQQKPGKAPKLLIYAASNLQSGVPSRFSGSGSGTDFTLTISSLQPEDFATYYCQQTSSYPTTFGQGTKVEIKR
On to B5, for which the binding result is listed as “binds”.

B6: scFv 3-4D (scFv)
scFv: EVQLLESGGGLVQPGGSLRLSCAASGFTFSSYAMSWVRQAPGKGLEWVSSISYTGDSTYYADSVKGRFTISRDNSKNTLYLQMNSLRAEDTAVYYCAKNYSAFDYWGQGTLVTVSSGGGGSGGGGSGGGGSTDIQMTQSPSSLSASVGDRVTITCRASQSISSYLNWYQQKPGKAPKLLIYTASNLQSGVPSRFSGSGSGTDFTLTISSLQPEDFATYYCQQSYASPTTFGQGTKVEIKR
For B6, the binding entry is on record as “binds”.

B7: scFv 3-2C (scFv)
scFv: EVQLLESGGGLVQPGGSLRLSCAASGFTFSSYAMSWVRQAPGKGLEWVSSIDTTGTTTYFADSVKGRFTISRDNSKNTLYLQMNSLRAEDTAVYYCAKNYSSFDYWGQGTLVTVSSGGGGSGGGGSGGGGSTDIQMTQSPSSLSASVGDRVTITCRASQSISSYLNWYQQKPGKAPKLLIYSASYLQSGVPSRFSGSGSGTDFTLTISSLQPEDFATYYCQQGYSAPTTFGQGTKVEIKR
Turning to B7, the binding entry was “binds”.

B8: scFv 3-5G (scFv)
scFv: EVQLLESGGGLVQPGGSLRLSCAASGFTFSSYAMSWVRQAPGKGLEWVSSIDSAGASTYYADSVKGRFTISRDNSKNTLYLQMNSLRAEDTAVYYCAKNYSAFDYWGQGTLVTVSSGGGGSGGGGSGGGGSTDIQMTQSPSSLSASVGDRVTITCRASQSISSYLNWYQQKPGKAPKLLIYNASSLQSGVPSRFSGSGSGTDFTLTISSLQPEDFATYYCQQSDTYPSTFGQGTKVEIKR
B8: the binding entry was “binds”.

B9: scFv 6-4E (scFv)
scFv: EVQLLESGGGLVQPGGSLRLSCAASGFTFSSYAMSWVRQAPGKGLEWVSSISYTGDSTYYADSVKGRFTISRDNSKNTLYLQMNSLRAEDTAVYYCAKNYSAFDYWGQGTLVTVSSGGGGSGGGGSGGGGSTDIQMTQSPSSLSASVGDRVTITCRASQSISSYLNWYQQKPGKAPKLLIYTASNLQSGVPSRFSGSGSGTDFTLTISSLQPEDFATYYCQQTGSYPTTFGQGTKVEIKR
As for B9, the binding entry was “binds”.

B10: scFv 3-6B (scFv)
scFv: EVQLLESGGGLVQPGGSLRLSCAASGFTFSSYAMSWVRQAPGKGLEWVSSINATGYGTYYADSVKGRFTISRDNSKNTLYLQMNSLRAEDTAVYYCAKNYSDFDYWGQGTLVTVSSGGGGSGGGGSGGGGSTDIQMTQSPSSLSASVGDRVTITCRASQSISSYLNWYQQKPGKAPKLLIYSASALQSGVPSRFSGSGSGTDFTLTISSLQPEDFATYYCQQGDSYPTTFGQGTKVEIKR
With B10, the binding entry is recorded as “binds”.

B11: scFv 6-9A (scFv)
scFv: EVQLLESGGGLVQPGGSLRLSCAASGFTFSSYAMSWVRQAPGKGLEWVSNIATDGTTTYYADSVKGRFTISRDNSKNTLYLQMNSLRAEDTAVYYCAKNSTYFDYWGQGTLVTVSSGGGGSGGGGSGGGGSTDIQMTQSPSSLSASVGDRVTITCRASQSISSYLNWYQQKPGKAPKLLIYSASTLQSGVPSRFSGSGSGTDFTLTISSLQPEDFATYYCQQAATSPTTFGQGTKVEIKR
Regarding B11, the binding result is reported as “binds”.

B12: scFv 6-9F (scFv)
scFv: EVQLLESGGGLVQPGGSLRLSCAASGFTFSSYAMSWVRQAPGKGLEWVSSINDTGYTTYYADSVKGRFTISRDNSKNTLYLQMNSLRAEDTAVYYCAKNYTYFDYWGQGTLVTVSSGGGGSGGGGSGGGGSTDIQMTQSPSSLSASVGDRVTITCRASQSISSYLNWYQQKPGKAPKLLIYTASTLQSGVPSRFSGSGSGTDFTLTISSLQPEDFATYYCQQAYTAPTTFGQGTKVEIKR
As for B12, the binding result is given as “binds”.

B13: scFv 6-7G (scFv)
scFv: EVQLLESGGGLVQPGGSLRLSCAASGFTFSSYAMSWVRQAPGKGLEWVSSIATTGDNTYYADSVKGRFTISRDNSKNTLYLQMNSLRAEDTAVYYCAKNYSYFDYWGQGTLVTVSSGGGGSGGGGSGGGGSTDIQMTQSPSSLSASVGDRVTITCRASQSISSYLNWYQQKPGKAPKLLIYTASTLQSGVPSRFSGSGSGTDFTLTISSLQPEDFATYYCQQAAGNPTTFGQGTKVEIKR
As for B13, the binding entry is on record as “binds”.

B14: scFv 6-10G (scFv)
scFv: EVQLLESGGGLVQPGGSLRLSCAASGFTFSSYAMSWVRQAPGKGLEWVSSIDAGGNGTYYADSVKGRFTISRDNSKNTLYLQMNSLRAEDTAVYYCAKNYSSFDYWGQGTLVTVSSGGGGSGGGGSGGGGSTDIQMTQSPSSLSASVGDRVTITCRASQSISSYLNWYQQKPGKAPKLLIYTASNLQSGVPSRFSGSGSGTDFTLTISSLQPEDFATYYCQQNNYYPTTFGQGTKVEIKR
For B14, the binding entry was “binds”.

B15: scFv 3-9A (scFv)
scFv: EVQLLESGGGLVQPGGSLRLSCAASGFTFSSYAMSWVRQAPGKGLEWVSTIDTAGSYTDYADSVKGRFTISRDNSKNTLYLQMNSLRAEDTAVYYCAKNYSYFDYWGQGTLVTVSSGGGGSGGGGSGGGGSTDIQMTQSPSSLSASVGDRVTITCRASQSISSYLNWYQQKPGKAPKLLIYGASTLQSGVPSRFSGSGSGTDFTLTISSLQPEDFATYYCQQSTASPSTFGQGTKVEIKR
Take B15: the binding entry is recorded as “binds”.

B16: scFv 6-6E (scFv)
scFv: EVQLLESGGGLVQPGGSLRLSCAASGFTFSSYAMSWVRQAPGKGLEWVSAISAAGTATAYADSVKGRFTISRDNSKNTLYLQMNSLRAEDTAVYYCAKGYDTFDYWGQGTLVTVSSGGGGSGGGGSGGGGSTDIQMTQSPSSLSASVGDRVTITCRASQSISSYLNWYQQKPGKAPKLLIYAASSLQSGVPSRFSGSGSGTDFTLTISSLQPEDFATYYCQQNYGYPNTFGQGTKVEIKR
Turning to B16, the binding result is “binds”.

B17: scFv 3-5H (scFv)
scFv: EVQLLESGGGLVQPGGSLRLSCAASGFTFSSYAMSWVRQAPGKGLEWVSSIAYGGAGTDYADSVKGRFTISRDNSKNTLYLQMNSLRAEDTAVYYCAKNYTAFDYWGQGTLVTVSSGGGGSGGGGSGGGGSTDIQMTQSPSSLSASVGDRVTITCRASQSISSYLNWYQQKPGKAPKLLIYAASYLQSGVPSRFSGSGSGTDFTLTISSLQPEDFATYYCQQGAGSPSTFGQGTKVEIKR
As to B17, the binding result is on record as “binds”.

B18: scFv 3-6G (scFv)
scFv: EVQLLESGGGLVQPGGSLRLSCAASGFTFSSYAMSWVRQAPGKGLEWVSSINSNGTDTYYADSVKGRFTISRDNSKNTLYLQMNSLRAEDTAVYYCAKNYSDFDYWGQGTLVTVSSGGGGSGGGGSGGGGSTDIQMTQSPSSLSASVGDRVTITCRASQSISSYLNWYQQKPGKAPKLLIYTASALQSGVPSRFSGSGSGTDFTLTISSLQPEDFATYYCQQGYGAPTTFGQGTKVEIKR
For B18, the binding entry was “binds”.

B19: scFv 6-3B (scFv)
scFv: EVQLLESGGGLVQPGGSLRLSCAASGFTFSSYAMSWVRQAPGKGLEWVSSIATTGTSTTYADSVKGRFTISRDNSKNTLYLQMNSLRAEDTAVYYCAKNYSYFDYWGQGTLVTVSSGGGGSGGGGSGGGGSTDIQMTQSPSSLSASVGDRVTITCRASQSISSYLNWYQQKPGKAPKLLIYTASSLQSGVPSRFSGSGSGTDFTLTISSLQPEDFATYYCQQGSTAPTTFGQGTKVEIKR
As for B19, the binding entry is recorded as “binds”.

B20: scFv 3-7B (scFv)
scFv: EVQLLESGGGLVQPGGSLRLSCAASGFTFSSYAMSWVRQAPGKGLEWVSSINNYGSNTAYADSVKGRFTISRDNSKNTLYLQMNSLRAEDTAVYYCAKGYSSFDYWGQGTLVTVSSGGGGSGGGGSGGGGSTDIQMTQSPSSLSASVGDRVTITCRASQSISSYLNWYQQKPGKAPKLLIYAASYLQSGVPSRFSGSGSGTDFTLTISSLQPEDFATYYCQQTSSSPDTFGQGTKVEIKR
For the molecule B20, the binding result is “binds”.
